Data reported in PubChem BioAssay AID1347423 (Functional Genomics Laboratory (NCATS/FGL), 2020).
Screen size: about 52,000 sequences; about 210 (0.4%) were called active.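 Rule for the calls: active = gene whose silencing raises cell survival under the drug, median off-target-corrected z-score across its silencing RNAs 2 or more; inactive = the rest.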 The list shows a part of the results.

Experiment: Resistance to Poly (ADP-Ribose) Polymerase inhibitor: Gene Identification via Genome-wide siRNA Screen
Details: mouse BRCA2 R2336H ES cells, olaparib, CellTiter-Glo viability; hits give high values
In short: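 Genome-wide siRNA screen (3 siRNAs/gene, 20 nM) in mouse ES cells carrying hypomorphic BRCA2 R2336H; olaparib 500 nM added 48 h post-transfection, CellTiter-Glo viability 72 h later. Normalized to plate-median negative control; MAD z-scores, gene median, seed-adjusted.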

Sequence	z-score
GGCAAAUUUCACUUUCAUUTT against 0610008A10Rik	inactive: -0.479
GGGUGGACCUUCGGAAUUATT against Mrpl23	inactive: -0.616
GGACAGCAAGAUGAAGAUGTT against Il17r	inactive: 0.442
GGACAGCAUGAUCCUACAATT against Smr2	inactive: -1.72
GCAACCUAUUUGUCUCUAUTT against Trhde	inactive: 0.219
GCGAAAGUGUUUGGCUGUATT against Ckt2	inactive: -2.21
CCUCACUGGUACAAUCCCATT against Tsg101	inactive: -1.11
CCAAGUAGAUAGGAAUUAUTT against Eps8	inactive: -0.242
GGAUAUGUACUGUCCAUCUTT against B3galt4	inactive: -1.47
CCUGGCAGAACUUUGAUAGTT against Fars1	inactive: -1.61
GCUGCACUAUAGCAUCUGUTT against 4921533L14Rik	inactive: -1.5
GCAAGCACGUCAGAAUCUCTT against Pln	inactive: -0.362
GGCUUCAAAACAAACAUCATT against Hsd17b2	inactive: 0.432
GCUCAAUGUUUGGCAACUUTT against Olfr1087	inactive: -0.68
CCUGGUAAUCACAAUUUCGTT against Tor1b	inactive: 1.27
GCUUCUGCUAUAUGUGCAGTT against 9130020G10Rik	inactive: 0.314
CGAAAGGUUUAUCUGUUAGTT against 2310058A11Rik	inactive: 0.612
GCAUGUGAACAUAUUCAAATT against Sfrs2ip	inactive: -0.216
CGAAUAUCCAGAAAUCAAUTT against Zfp162	inactive: -0.236
GGAGAUUUUCCAGUACACUTT against Btbd12	inactive: -0.278
GGGACUUUGAGAAGCAGAGTT against Gja10	inactive: -1.36
GGGCAUUGAAGCAAAUAUATT against Prss7	inactive: -0.0342
GGAAAUCCACAGGAAAGUGTT against G3bp	inactive: -0.629
UAACAGACCAGUAAAGGCCTT against Klra21	inactive: -0.445
GGCAUGACAGCGGUUAUCUTT against Slc25a16	inactive: 1.82
GCGCACAGUACAUUCAUUUTT against Drd5	inactive: -0.99

Sequence	z-score
CCGUCCACACUUUUUGCUGTT against Isyna1	inactive: 0.732
GGGUGUGAAAGUCAAUAAATT against 4930591A17Rik	inactive: 0.132
GGAGAUCUAUUGGAUCCAUTT against Trim12	inactive: 0.418
GCUCAAUAAAGGUGUGGAATT against Cox6a2	inactive: 0.567
GCCUAUGAUAAGUCUGUGUTT against 6330512M04Rik	inactive: -1.12
GCAUUAUGUCCCAACAUAATT against Olfr935	inactive: -0.531
GCUUGUAAUGCAGGUUUAATT against 5730509C05Rik	inactive: -1.22
GGAAUCGGACUACCUCAUCTT against Lrp11	inactive: -0.192
GGACCAUUGCCAGAAACUATT against Ptpn20	inactive: 0.0122
CCUGAUAUUCAAUCUGCACTT against A730008L03Rik	inactive: 0.131
GCUUAUGAACUAACAUAGATT against Ccr2	inactive: 0.33
CCUCUCAUAUCAUAGGUAATT against C730026E21Rik	inactive: -0.857
CGUUGCUGACUGCUAUGAATT against Tmprss13	inactive: -0.39
GGCUCCUUUUUGAGCUGAATT against BC055757	inactive: -0.313
GGCUAAAAAAAAAUGGUAGTT against Thra	inactive: -0.0839
GGCGAGAGGAAGAAAGACUTT against Mlph	inactive: -1.76
GGCUUUUCACAAAACUGUUTT against Zfp120	inactive: 0.48
GGGAGCAAACGAGAAGAUATT against Gja9	inactive: 1.72
GGCUCAUGUACUGCUACAUTT against Ntsr2	inactive: 0.174
CCCUCCUAGAUACAUUUUGTT against Ifna6T	inactive: 0.0459
CGCGGUAAAUACAAGGAGGTT against 1200014P03Rik	inactive: 0.487
GGCUGUGAUACGACUAAAGTT against Fscn3	inactive: -0.407
GGACUUUUGAUAGAUGCUATT against Kctd12b	inactive: -0.29
GGAAGGAAGAAAGGGUUCUTT against Olfr1160	inactive: 0.623
GGCUGAGAACUACUAUUCUTT against Mesp2	inactive: -0.0193
GGAUGCUUUACCAAAUGAATT against BC010552	inactive: 0.932

Sequence	z-score
GGUAGCUGUAGUUCUAACUTT against AI597468	inactive: 0.625
AAGAGGCUUCCGACAAGUGTT against Mt2	inactive: -0.168
GCUCUUAACAUUUAUGCUATT against 5730421E18Rik	inactive: 1.14
GCCUCAUACCUUGUUACUATT against Gm962	inactive: -0.682
CCAAUUUAUGCCUGAAACUTT against Rhof	inactive: -1.28
GGCGAGCCAUGUUUGAUGATT against Hs1bp3	inactive: 0.449
CCAUGCUGAUUGCUCCGACTT against F730031O20Rik	inactive: -0.513
GGAGUCAUUGACGGAGGAUTT against Dapk3	inactive: 1.04
GCUACCUUUUAGUGUCCAUTT against Olfr1462	inactive: -0.33
CCAUGGACAUCGAUCACAUTT against Sec14l3	inactive: -0.0645
GGUCCUGAAAAAAGUGAUUTT against 3110010F15Rik	inactive: 0.47
GAGGGAGAUGUCGUCCAAGTT against Gng13	inactive: -0.831
GGGACCAGAACCACAAACATT against Ghsr	inactive: 1.55
GGUGCCUAAUGGAUAAGAATT against Thrap2	inactive: 0.923
CCUGCCUAUGUCUAGGCCATT against AW212607	inactive: 1.16
GCUAGCACAGGGAAUUUAGTT against Rgs20	inactive: -1.11
GCCUGUCUCCUCAAUGCUUTT against LOC433873	inactive: -0.298
GGAUGGAGACCUCUCCUUUTT against Guca2a	inactive: -0.761
GGAGAAUGGAAAGUAUGGGTT against D1Pas1	inactive: -0.821
GGUUGUGAGCUAACAAUGGTT against B430209F14Rik	inactive: -1.11
GGUAUGCUCUCUGUUGACUTT against Olfr922	inactive: -1.13
GGAGAGUAUGGACAGUAUUTT against Pgc	inactive: -1.42
GGGUUAGAACUGACACCCGTT against Elk4	inactive: 0.248
GGUUGUUUCCAGUAUUCUGTT against Apc2	inactive: 0.257
GCAGUAGGUGCCUUAUUGGTT against Rab11a	inactive: 0.0317
GGUGAUGGUCCAGAUUAACTT against Prosc	inactive: 0.691

Sequence	z-score
GGAACUUGGUGCAAUCAUCTT against AI132321	inactive: 1.24
GACCGAGGUCAACAGAGUGTT against Slc6a20	inactive: -1.24
GGCACAGUAAUCUUUUUCUTT against C130086A10	inactive: 0.197
GGCUGUGAAAUCGGAUUUATT against Cacnb2	inactive: -0.673
CGUGUAUGAGGCUAAGUUATT against Gpr68	inactive: -0.494
GGGUUAUUGAAUUAGUUCATT against Mybl1	inactive: 0.687
GCUAUAAGUUUCUGGGUGATT against Fzd2	inactive: 1.23
GGUAUUUGAAUUUCGUCCCTT against 2610312B22Rik	inactive: -0.182
GCAUAAACUAACCACUUAGTT against Evi2b	inactive: -1.12
GGGCAAACUCUAUAAUCAGTT against BC023105	inactive: -1.15
CGCCUAGCCUACUGAGAUUTT against 6330408A02Rik	inactive: -0.179
GGGAAGAAACUGUGAUUUUTT against Cbfa2t3h	inactive: 0.583
GGCUGAAAUAUGAAAUUGCTT against Pscd3	inactive: 0.00525
CGGAACUAUGAAAAGAAAUTT against Stk3	inactive: -0.0974
GGUUGGCAUGUUUGGUGUUTT against 6430596G11Rik	inactive: -0.488
CCCUAGAUGGCCGAAAUAUTT against Dazap1	inactive: -1.82
GCAGAAGUCUAUCACCUUUTT against Olfr1441	inactive: 1.57
GGGAAUCUUGGCAUGAUGGTT against Olfr1030	inactive: -0.0935
GGCAAAAUUUGUGUGCAAATT against Mrc1	inactive: 1.09
GCGAUGGACUCAAAAAACUTT against Ehd3	inactive: 0.71
GGUAGAUGAUAAUUUCACUTT against 4930595M18Rik	inactive: 1.05
GCUAGAUUACUCACAUCUATT against Ivl	inactive: -0.664
GGAAUUCCAGACACCCAUCTT against 1110011K10Rik	inactive: 0.835
GCAGUAUCUACAAGAGGAGTT against 4933413B09Rik	inactive: 0.792
GCCGAAACAAUGUACAGAUTT against Rbpsuh	inactive: 0.14

23 entries from above, bar-delimited:
Sequence | z-score
CCUGGUAAUCACAAUUUCGTT against Tor1b | inactive: 1.27
GCUUCUGCUAUAUGUGCAGTT against 9130020G10Rik | inactive: 0.314
CGAAAGGUUUAUCUGUUAGTT against 2310058A11Rik | inactive: 0.612
GCAUGUGAACAUAUUCAAATT against Sfrs2ip | inactive: -0.216
CGAAUAUCCAGAAAUCAAUTT against Zfp162 | inactive: -0.236
GGAGAUUUUCCAGUACACUTT against Btbd12 | inactive: -0.278
GGGACUUUGAGAAGCAGAGTT against Gja10 | inactive: -1.36
GGGCAUUGAAGCAAAUAUATT against Prss7 | inactive: -0.0342
GGAAAUCCACAGGAAAGUGTT against G3bp | inactive: -0.629
UAACAGACCAGUAAAGGCCTT against Klra21 | inactive: -0.445
GGCAUGACAGCGGUUAUCUTT against Slc25a16 | inactive: 1.82
GCGCACAGUACAUUCAUUUTT against Drd5 | inactive: -0.99
CCGUCCACACUUUUUGCUGTT against Isyna1 | inactive: 0.732
GGGUGUGAAAGUCAAUAAATT against 4930591A17Rik | inactive: 0.132
GGAGAUCUAUUGGAUCCAUTT against Trim12 | inactive: 0.418
GCUCAAUAAAGGUGUGGAATT against Cox6a2 | inactive: 0.567
GCCUAUGAUAAGUCUGUGUTT against 6330512M04Rik | inactive: -1.12
GCAUUAUGUCCCAACAUAATT against Olfr935 | inactive: -0.531
GCUUGUAAUGCAGGUUUAATT against 5730509C05Rik | inactive: -1.22
GGAAUCGGACUACCUCAUCTT against Lrp11 | inactive: -0.192
GGACCAUUGCCAGAAACUATT against Ptpn20 | inactive: 0.0122
CCUGAUAUUCAAUCUGCACTT against A730008L03Rik | inactive: 0.131
GCUUAUGAACUAACAUAGATT against Ccr2 | inactive: 0.33
